Data taken from patent US20110065632A1 (priority 2008, published 2011).

Experiment: general procedure: Fmoc solid-phase peptide synthesis; Rink Amide MBHA; DIC/HOBt (double coupling); PyBrop/HOAT/pentafluorophenol/DMAP/DIEA for Dop2-OH
Conditions: whole synthesis, analytical HPLC, scale 50 umol

Dop2-DLys (Dop2)-cyclo[Cys-Tyr-DTrp-Lys-Abu-Cys]-Thr-NH2
final HPLC purity: 99.99%
